According to the supplement of paper PMC7661543:
The effect of the compound repeats well; differences between the knockouts mostly do not.

Test system: MDA-MB-231
Test: relative cell number vs DMSO control (72 h) (% of DMSO); higher = less growth inhibition (more cells)
Procedure: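 QMAP-Seq: a pool of 5 breast cancer cell lines (ZR-75-1, SKBR3, HCC-38, MDA-MB-231, BT-20), each carrying 12 doxycycline-inducible Cas9 sgRNA perturbations (11 knockouts plus non-targeting sgNT), was treated with compounds for 72 h at four 10-fold doses (10 nM-10 uM or 1 nM-1 uM range). Barcodes were amplified and sequenced, and cell number was interpolated from 293T spike-in standard curves. The result is expressed as % of the median of DMSO wells. Two biological replicates.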

CCOc1ccccc1-n1c(C(C)N2CCN(C(=O)COc3ccc(Cl)cc3)CC2)nc2ccccc2c1=O (configuration not stated) [Erastin]
Conditions | relative cell number
sgRNA knockout: sgATF3, 10 nM | 116
sgRNA knockout: sgATF3, 100 nM | 89.3
sgRNA knockout: sgATF3, 1000 nM | 96.6
sgRNA knockout: sgATF3, 10000 nM | 16
sgRNA knockout: sgATF4, 10 nM | 105
sgRNA knockout: sgATF4, 100 nM | 91.6
sgRNA knockout: sgATF4, 1000 nM | 105
sgRNA knockout: sgATF4, 10000 nM | 15.6
sgRNA knockout: sgATF6, 10 nM | 85.5
sgRNA knockout: sgATF6, 100 nM | 105
sgRNA knockout: sgATF6, 1000 nM | 95.9
sgRNA knockout: sgATF6, 10000 nM | 12.6
sgRNA knockout: sgATG7, 10 nM | 79.7
sgRNA knockout: sgATG7, 100 nM | 74.6
sgRNA knockout: sgATG7, 1000 nM | 88.7
sgRNA knockout: sgATG7, 10000 nM | 12.2
sgRNA knockout: sgERN1, 10 nM | 94.8
sgRNA knockout: sgERN1, 100 nM | 101
sgRNA knockout: sgERN1, 1000 nM | 85.3
sgRNA knockout: sgERN1, 10000 nM | 21.7
sgRNA knockout: sgHSF1, 10 nM | 86.7
sgRNA knockout: sgHSF1, 100 nM | 83.5
sgRNA knockout: sgHSF1, 1000 nM | 90.5
sgRNA knockout: sgHSF1, 10000 nM | 9.86
sgRNA knockout: sgHSF2, 10 nM | 93.5
sgRNA knockout: sgHSF2, 100 nM | 94.3
sgRNA knockout: sgHSF2, 1000 nM | 91.9
sgRNA knockout: sgHSF2, 10000 nM | 20.1
sgRNA knockout: sgKEAP1, 10 nM | 117
sgRNA knockout: sgKEAP1, 100 nM | 91.9
sgRNA knockout: sgKEAP1, 1000 nM | 75.3
sgRNA knockout: sgKEAP1, 10000 nM | 24.1
sgRNA knockout: sgNFE2L2, 10 nM | 84.1
sgRNA knockout: sgNFE2L2, 100 nM | 97.8
sgRNA knockout: sgNFE2L2, 1000 nM | 81.7
sgRNA knockout: sgNFE2L2, 10000 nM | 17.3
sgRNA knockout: sgSLC35F2, 10 nM | 100
sgRNA knockout: sgSLC35F2, 100 nM | 76.7
sgRNA knockout: sgSLC35F2, 1000 nM | 93.2
sgRNA knockout: sgSLC35F2, 10000 nM | 14.69
sgRNA knockout: sgXBP1, 10 nM | 96.3
sgRNA knockout: sgXBP1, 100 nM | 82.7
sgRNA knockout: sgXBP1, 1000 nM | 75.1
sgRNA knockout: sgXBP1, 10000 nM | 14.4

COC(=O)Nc1nc2cc(C(=O)c3ccccc3)ccc2[nH]1 [Mebendazole]
Conditions | relative cell number
sgRNA knockout: sgATF3, 10 nM | 93.9
sgRNA knockout: sgATF3, 100 nM | 83.6
sgRNA knockout: sgATF3, 1000 nM | 39
sgRNA knockout: sgATF3, 10000 nM | 23.4
sgRNA knockout: sgATF4, 10 nM | 103
sgRNA knockout: sgATF4, 100 nM | 69.3
sgRNA knockout: sgATF4, 1000 nM | 32.9
sgRNA knockout: sgATF4, 10000 nM | 22.8
sgRNA knockout: sgATF6, 10 nM | 102
sgRNA knockout: sgATF6, 100 nM | 74
sgRNA knockout: sgATF6, 1000 nM | 34.9
sgRNA knockout: sgATF6, 10000 nM | 22.7
sgRNA knockout: sgATG7, 10 nM | 99
sgRNA knockout: sgATG7, 100 nM | 70.7
sgRNA knockout: sgATG7, 1000 nM | 30.6
sgRNA knockout: sgATG7, 10000 nM | 22.5
sgRNA knockout: sgERN1, 10 nM | 97.2
sgRNA knockout: sgERN1, 100 nM | 89
sgRNA knockout: sgERN1, 1000 nM | 42
sgRNA knockout: sgERN1, 10000 nM | 18
sgRNA knockout: sgHSF1, 10 nM | 86.3
sgRNA knockout: sgHSF1, 100 nM | 64.8
sgRNA knockout: sgHSF1, 1000 nM | 30.1
sgRNA knockout: sgHSF1, 10000 nM | 21.6
sgRNA knockout: sgHSF2, 10 nM | 93.2
sgRNA knockout: sgHSF2, 100 nM | 85.3
sgRNA knockout: sgHSF2, 1000 nM | 29.6
sgRNA knockout: sgHSF2, 10000 nM | 21.8
sgRNA knockout: sgKEAP1, 10 nM | 110
sgRNA knockout: sgKEAP1, 100 nM | 62.7
sgRNA knockout: sgKEAP1, 1000 nM | 27
sgRNA knockout: sgKEAP1, 10000 nM | 16
sgRNA knockout: sgNFE2L2, 10 nM | 101
sgRNA knockout: sgNFE2L2, 100 nM | 60.1
sgRNA knockout: sgNFE2L2, 1000 nM | 30.6
sgRNA knockout: sgNFE2L2, 10000 nM | 20.8
sgRNA knockout: sgSLC35F2, 10 nM | 86.7
sgRNA knockout: sgSLC35F2, 100 nM | 78.5
sgRNA knockout: sgSLC35F2, 1000 nM | 29.9
sgRNA knockout: sgSLC35F2, 10000 nM | 25.3
sgRNA knockout: sgXBP1, 10 nM | 87.85
sgRNA knockout: sgXBP1, 100 nM | 64
sgRNA knockout: sgXBP1, 1000 nM | 30.8
sgRNA knockout: sgXBP1, 10000 nM | 19.8

CC(C)[C@]12O[C@H]1[C@@H]1O[C@]13[C@]1(O[C@H]1C[C@H]1C4=C(CC[C@@]13C)C(=O)OC4)[C@@H]2O [Triptolide]
Conditions | relative cell number
sgRNA knockout: sgATF3, 1 nM | 99.8
sgRNA knockout: sgATF3, 10 nM | 54.5
sgRNA knockout: sgATF3, 100 nM | 21.6
sgRNA knockout: sgATF3, 1000 nM | 11.6
sgRNA knockout: sgATF4, 1 nM | 91.3
sgRNA knockout: sgATF4, 10 nM | 68.8
sgRNA knockout: sgATF4, 100 nM | 24.9
sgRNA knockout: sgATF4, 1000 nM | 18.7
sgRNA knockout: sgATF6, 1 nM | 90.7
sgRNA knockout: sgATF6, 10 nM | 59.7
sgRNA knockout: sgATF6, 100 nM | 16
sgRNA knockout: sgATF6, 1000 nM | 17.4
sgRNA knockout: sgATG7, 1 nM | 86.7
sgRNA knockout: sgATG7, 10 nM | 49
sgRNA knockout: sgATG7, 100 nM | 16.5
sgRNA knockout: sgATG7, 1000 nM | 15.9
sgRNA knockout: sgERN1, 1 nM | 115
sgRNA knockout: sgERN1, 10 nM | 45.6
sgRNA knockout: sgERN1, 100 nM | 16.4
sgRNA knockout: sgERN1, 1000 nM | 15.06
sgRNA knockout: sgHSF1, 1 nM | 86.4
sgRNA knockout: sgHSF1, 10 nM | 43.9
sgRNA knockout: sgHSF1, 100 nM | 18.9
sgRNA knockout: sgHSF1, 1000 nM | 10.5
sgRNA knockout: sgHSF2, 1 nM | 81.1
sgRNA knockout: sgHSF2, 10 nM | 48.4
sgRNA knockout: sgHSF2, 100 nM | 15.2
sgRNA knockout: sgHSF2, 1000 nM | 13.3
sgRNA knockout: sgKEAP1, 1 nM | 82.3
sgRNA knockout: sgKEAP1, 10 nM | 44.7
sgRNA knockout: sgKEAP1, 100 nM | 18.2
sgRNA knockout: sgKEAP1, 1000 nM | 19.4
sgRNA knockout: sgNFE2L2, 1 nM | 102
sgRNA knockout: sgNFE2L2, 10 nM | 38.8
sgRNA knockout: sgNFE2L2, 100 nM | 20.3
sgRNA knockout: sgNFE2L2, 1000 nM | 15.1
sgRNA knockout: sgSLC35F2, 1 nM | 86.1
sgRNA knockout: sgSLC35F2, 10 nM | 49.3
sgRNA knockout: sgSLC35F2, 100 nM | 21
sgRNA knockout: sgSLC35F2, 1000 nM | 13.7
sgRNA knockout: sgXBP1, 1 nM | 77.9
sgRNA knockout: sgXBP1, 10 nM | 52.9
sgRNA knockout: sgXBP1, 100 nM | 14.6
sgRNA knockout: sgXBP1, 1000 nM | 13.1
